In brackets after ≈: the same amount, converted by molar mass. Part of at least one peptide drawing is inferred or uncertain, most often the ends. Starred links: 1 amine or outer side, 2 acyl side, 3 side chain; linkers in the order of their positions; H or OH if unused. Positions of bridges follow the written chain, without caps; N, C: chain ends. Non-standard residues stand in square brackets, D forms with d. Residues, ends and D or L forms follow the SMILES beside them. ξ: configuration not given here. *: point of attachment. X2 = CCCCCCCOc1ccc(-c2ccc(-c3ccc(C(=O)*)cc3)cc2)cn1; ξOrn(4,5-diOH) = O=C(C(CC(O)C(O)N[*:3])N[*:1])[*:2]; ξhTyr(βξ-OH,γξ-OH) = NC(C(=O)O)C(O)C(O)c1ccc(O)cc1; X1 = CCCCCOc1ccc(-c2ccc(-c3ccc(C(=O)*)cn3)cn2)cc1; ξPro(3ξ-OH,4ξ-Me) = CC1CNC(C(=O)O)C1O; Hyp = O=C(O)[CH]1C[CH](O)CN1
Experiments:
[1] = system: C. albicans; experiment: Effective dose for controlling a systemic fungal infection in vivo (mice)
[2] = system: C. albicans; experiment: Minimal inhibitory concentration (MIC) in vitro, standard agar dilution test or disc-diffusion test; type: cell-based

**Q.** How did the “ED50 (mouse, i.p.)” value [1] turn out when `CCCCCCCOc1ccc(-c2ccc(-c3ccc(C(=O)NC4CC(O)C(O)NC(=O)C5C(O)C(C)CN5C(=O)C(C(C)O)NC(=O)C(C(O)C(O)c5ccc(O)cc5)NC(=O)C5CC(O)CN5C(=O)C(C(C)O)NC4=O)cc3)cc2)cn1` (stereo not drawn) [Example 3D] (X2-[ξOrn(4,5-diOH)]T[Hyp][ξhTyr(βξ-OH,γξ-OH)]T[ξPro(3ξ-OH,4ξ-Me)]; lactam 1-C; configuration not given here) was run?
**A.** 0.31 mg/kg

**Q.** And the “Minimal inhibitory concentration against C. albicans, MIC” value [2]?
**A.** 0.02 µg/mL (≈ 0.0171 µM)

**Q.** With `CCCCCOc1ccc(-c2ccc(-c3ccc(C(=O)NC4CC(O)C(O)NC(=O)C5C(O)C(C)CN5C(=O)C(C(C)O)NC(=O)C(C(O)C(O)c5ccc(O)cc5)NC(=O)C5CC(O)CN5C(=O)C(C(C)O)NC4=O)cn3)cn2)cc1` (stereo not drawn) [Example 1D] (X1-[ξOrn(4,5-diOH)]T[Hyp][ξhTyr(βξ-OH,γξ-OH)]T[ξPro(3ξ-OH,4ξ-Me)]; lactam 1-C; configuration not given here) as the compound, how does the “ED50 (mouse, i.p.)” value [1] read?
**A.** 1.57 mg/kg

**Q.** What about the “Minimal inhibitory concentration against C. albicans, MIC” value [2] of the same compound?
**A.** 0.78 µg/mL (≈ 0.683 µM)
